The record followed here is PMC6779467.

In series [1] the test system is Hsf1-StrepTag II + Ssa1 (Hsp70). Kind of series: competition with a labelled probe. The following applies: 10 mM Tris-HCl pH 7.5, 50 mM KCl, 2.5 mM DTT, 0.25% Tween 20, 20 min at 20 C, 6% DNA retardation gel in TBE, recombinant protein, protein details: C-terminal StrepTag II,6xHis-SUMO removed by Ulp1.
The test system is the same in series [2]. Kind of series: EMSA. The following applies: 10 mM Tris-HCl pH 7.5, 50 mM KCl, 2.5 mM DTT, 0.25% Tween 20, 20 min at 20 C, 6% DNA retardation gel in TBE, recombinant protein, protein details: C-terminal StrepTag II,6xHis-SUMO removed by Ulp1.

For some of these results: A negative result means that nothing was seen under these conditions. For some of these results: At least one verdict was read from the data and is not stated in words by the source. Construct, isoform or probe ends are uncertain for at least one entry. For some of these results: A weaker result is weaker than the reference pair of the same experiment.

“TCGATGTGCCAGTACGTAGCATCGGC (double strand) [HSE* (mut HSE)]”: the binding result in series [1] (unlabeled inactive mutant HSE vs HSE-DY682) is reported as “no binding”.
For “TCGATTTTCCAGAACGTTCCATCGGC (double strand) [HSE (unlabeled competitor)]”, the binding result in series [1] (unlabeled HSE competes HSE-DY682) is “binds”.
On to “TCGATTTTCCAGAACGTTCCATCGGC (double strand) [HSE-DY682]”, for which the binding result in series [2] (excess Ssa1 added (5x +1.25 uM, 10x +2.5 uM, titration 0.25-4.0 uM), without ATP, titratable decrease) is given as “binds more weakly”; in series [2] (excess Ssa1 added, with 1 mM ATP, ATP has no significant effect except at highest Ssa1), “binds more weakly”.
